These are yes or no findings as the source states them, for the method shown. Binding seen in cells or lysates may run through a third protein. A yes stands for co-enrichment or nearness to the bait. Other partners may have been found. Tags and fused reporters may be left off the sequences shown.
Target: T1, DIDO1-529aa with Flag tag (DIDO1-529aa-Flag), the 529 aa protein encoded by circDIDO1 (human) (UniProt Q9BTC0)
T1 sequence: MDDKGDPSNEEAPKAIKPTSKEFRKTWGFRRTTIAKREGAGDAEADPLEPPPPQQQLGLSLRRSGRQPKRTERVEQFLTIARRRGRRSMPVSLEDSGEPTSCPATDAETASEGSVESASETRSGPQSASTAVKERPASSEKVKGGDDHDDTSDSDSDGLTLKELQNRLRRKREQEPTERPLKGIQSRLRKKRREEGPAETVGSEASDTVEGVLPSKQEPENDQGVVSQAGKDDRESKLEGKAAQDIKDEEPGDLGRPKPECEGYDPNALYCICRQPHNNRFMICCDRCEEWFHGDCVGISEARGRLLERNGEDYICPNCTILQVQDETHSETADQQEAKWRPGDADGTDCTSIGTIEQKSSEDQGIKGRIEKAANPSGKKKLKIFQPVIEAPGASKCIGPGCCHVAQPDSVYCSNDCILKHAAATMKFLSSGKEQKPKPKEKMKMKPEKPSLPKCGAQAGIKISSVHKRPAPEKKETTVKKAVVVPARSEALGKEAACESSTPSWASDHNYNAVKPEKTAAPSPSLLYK
Experiment: affinity purification with mass spectrometry; Co-IP with anti-Flag antibody (DIDO1-529aa as bait), LC-MS/MS of the co-precipitate; cells not given

Amino acid sequences for entries named in this document (tags omitted).
UniProt P09874: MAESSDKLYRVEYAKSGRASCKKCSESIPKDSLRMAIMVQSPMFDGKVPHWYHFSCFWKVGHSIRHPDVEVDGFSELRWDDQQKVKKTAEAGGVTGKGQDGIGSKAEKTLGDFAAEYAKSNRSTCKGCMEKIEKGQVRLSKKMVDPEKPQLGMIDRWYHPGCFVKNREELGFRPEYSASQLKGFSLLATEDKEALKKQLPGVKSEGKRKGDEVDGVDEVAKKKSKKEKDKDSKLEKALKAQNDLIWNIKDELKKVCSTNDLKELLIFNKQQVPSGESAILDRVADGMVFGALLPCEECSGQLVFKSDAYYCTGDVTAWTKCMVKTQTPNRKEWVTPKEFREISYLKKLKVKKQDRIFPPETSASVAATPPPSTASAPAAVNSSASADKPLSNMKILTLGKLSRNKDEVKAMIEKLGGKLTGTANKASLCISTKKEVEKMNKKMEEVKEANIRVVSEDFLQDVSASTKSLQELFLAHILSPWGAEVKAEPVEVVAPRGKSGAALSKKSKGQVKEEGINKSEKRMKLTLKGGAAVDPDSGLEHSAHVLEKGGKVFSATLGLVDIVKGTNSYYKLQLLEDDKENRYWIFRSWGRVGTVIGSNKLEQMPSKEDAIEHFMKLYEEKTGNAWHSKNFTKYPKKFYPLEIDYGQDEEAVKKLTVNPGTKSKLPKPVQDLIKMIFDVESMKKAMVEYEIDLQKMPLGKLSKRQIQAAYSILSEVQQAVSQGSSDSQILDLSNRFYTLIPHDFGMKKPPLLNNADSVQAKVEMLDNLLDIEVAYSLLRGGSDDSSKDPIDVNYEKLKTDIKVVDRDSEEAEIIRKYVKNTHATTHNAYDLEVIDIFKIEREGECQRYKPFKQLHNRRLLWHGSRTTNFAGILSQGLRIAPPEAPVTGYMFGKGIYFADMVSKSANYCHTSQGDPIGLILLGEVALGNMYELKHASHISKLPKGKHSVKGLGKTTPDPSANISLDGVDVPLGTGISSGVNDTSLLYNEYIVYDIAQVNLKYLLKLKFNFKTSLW

In the case of “poly (ADP-ribose) polymerases-1 (PARP1) (from UniProt P09874 1-1014) (enzyme)”, the binding is reported as “binds”.

Reference: publication PMC8359101
